Reference: PMC12174371
Numbering of substitutions follows the chain as printed. Numbers in names are those of the source. These are yes or no findings as the source states them, for the method shown. In cells and extracts the contact can be indirect. Some entries that bind do so weakly or less than the wild type.

Amino acid sequences for entries named in this document (tags omitted).
UniProt O43143: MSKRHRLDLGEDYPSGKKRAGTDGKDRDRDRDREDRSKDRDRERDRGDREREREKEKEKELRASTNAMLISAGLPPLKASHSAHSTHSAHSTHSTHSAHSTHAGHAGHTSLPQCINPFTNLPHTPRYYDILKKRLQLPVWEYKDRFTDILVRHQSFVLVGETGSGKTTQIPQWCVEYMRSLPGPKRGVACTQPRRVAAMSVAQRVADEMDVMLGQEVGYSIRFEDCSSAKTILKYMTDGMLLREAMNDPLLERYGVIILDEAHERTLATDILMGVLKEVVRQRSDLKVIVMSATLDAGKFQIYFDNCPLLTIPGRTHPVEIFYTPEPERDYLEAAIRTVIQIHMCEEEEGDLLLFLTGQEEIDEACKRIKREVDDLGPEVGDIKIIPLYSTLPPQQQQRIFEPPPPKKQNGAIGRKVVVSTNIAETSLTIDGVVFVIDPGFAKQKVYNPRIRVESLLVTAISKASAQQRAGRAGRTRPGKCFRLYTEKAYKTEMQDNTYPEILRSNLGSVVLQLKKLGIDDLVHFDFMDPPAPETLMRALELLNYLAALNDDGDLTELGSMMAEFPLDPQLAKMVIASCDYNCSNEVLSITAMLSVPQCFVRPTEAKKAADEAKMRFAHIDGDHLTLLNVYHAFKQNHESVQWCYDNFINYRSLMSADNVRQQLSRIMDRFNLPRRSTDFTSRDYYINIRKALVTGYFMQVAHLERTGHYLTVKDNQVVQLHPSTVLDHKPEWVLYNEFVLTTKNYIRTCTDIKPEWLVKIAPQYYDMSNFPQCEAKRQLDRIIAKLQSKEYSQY
UniProt Q7Z434: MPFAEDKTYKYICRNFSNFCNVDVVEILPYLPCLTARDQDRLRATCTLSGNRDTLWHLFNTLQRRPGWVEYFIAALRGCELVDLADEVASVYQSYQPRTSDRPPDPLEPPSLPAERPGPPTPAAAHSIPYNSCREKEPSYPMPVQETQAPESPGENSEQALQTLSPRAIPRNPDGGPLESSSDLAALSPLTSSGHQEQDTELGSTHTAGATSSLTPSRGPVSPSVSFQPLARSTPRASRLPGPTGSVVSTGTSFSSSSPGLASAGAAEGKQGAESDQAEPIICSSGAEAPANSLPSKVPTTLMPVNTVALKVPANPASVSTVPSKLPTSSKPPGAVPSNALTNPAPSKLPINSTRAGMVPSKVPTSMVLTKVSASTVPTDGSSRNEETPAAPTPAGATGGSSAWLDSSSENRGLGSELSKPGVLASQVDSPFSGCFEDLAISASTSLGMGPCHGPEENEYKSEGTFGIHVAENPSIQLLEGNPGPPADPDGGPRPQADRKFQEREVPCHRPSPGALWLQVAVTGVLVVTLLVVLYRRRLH

B1: wild type NUDCD1 (L252), NudC Domain Containing 1 (protein, UniProt Q96RS6 1-583)
chain: MEVAANCSLRVKRPLLDPRFEGYKLSLEPLPCYQLELDAAVAEVKLRDDQYTLEHMHAFGMYNYLHCDSWYQDSVYYIDTLGRIMNLTVMLDTALGKPREVFRLPTDLTACDNRLCASIHFSSSTWVTLSDGTGRLYVIGTGERGNSASEKWEIMFNEELGDPFIIIHSISLLNAEEHSIATLLLRIEKEELDMKGSGFYVSLEWVTISKKNQDNKKYEIIKRDILRGKSVPHYAAIEPDGNGLMIVSYKSLTFVQAGQDLEENMDEDISEKIKEPLYYWQQTEDDLTVTIRLPEDSTKEDIQIQFLPDHINIVLKDHQFLEGKLYSSIDHESSTWIIKESNSLEISLIKKNEGLTWPELVIGDKQGELIRDSAQCAAIAERLMHLTSEELNPNPDKEKPPCNAQELEECDIFFEESSSLCRFDGNTLKTTHVVNLGSNQYLFSVIVDPKEMPCFCLRHDVDALLWQPHSSKQDDMWEHIATFNALGYVQASKRDKKFFACAPNYSYAALCECLRRVFIYRQPAPMSTVLYNRKEGRQVGQVAKQQVASLETNDPILGFQATNERLFVLTTKNLFLIKVNTEN
B2: NUDCD1 p.L252F variant (protein, UniProt Q96RS6 1-583)
chain: B1 chain with L252F

Biological target: DEAH-Box Helicase 15 (DHX15) (human (endogenous in A549-ACE2)) (UniProt O43143)
Assay: co-IP

| Molecule | binding |
| --- | --- |
| Mitochondrial Antiviral Signalling Protein (MAVS) (from UniProt Q7Z434 1-540) | binds |
| B1 | binds |
| B2 | binds |
